Measurements reported in patent publication US10202420B2, “Methods and compositions for treatment of cartilage and disc tissue pathologies” (THE ROYAL INSTITUTION FOR ADVANCEMENT OF LEARNING/MCGILL …, priority 2013, dated 2019).
Not every detail of the peptide structures is certain; ends, links or a residue may be inferred. Where no end group is shown, it is not given here.

Test system: Smad1/5
Experiment: Smad1/5 activation, immunoblotting, NP cells
Assay type: cell-based, bovine
Details: 1 μg/ml, up to 6 hours

Sequence | Smad1/5 activation
DHHSDNYTVDHDRVIH [BLN, DHHSDNYTVDHDRVIH] | significantly stimulated Smad1/5 after 30 minutes and continued to increase with time
DHLSDNYTLDHDRAIH [Link N, DHLSDNYTLDHDRAIH] | significantly stimulated Smad1/5 after 30 minutes and continued to increase with time
